Measured values taken from paper PMC10951710.

Columns and labels:
[1] = target: T1, MKK1-TurboID-Hisx8 fusion protein (mitogen-activated protein kinase kinase 1 fused to TurboID) (Arabidopsis thaliana) (UniProt Q94A06); experiment: proximity labelling; in planta TurboID labelling in MKK1-ID or MKK2-ID transgenic Arabidopsis against TurboID-only (ID) plants; 150 uM biotin and 5 uM estradiol in the medium, 5 min wind of 4 m/sec; denaturing extraction, streptavidin enrichment of biotinylproteins and biotinylpeptides, LC-MS/MS, iBAQ quantitation; hits at log2-ratio >= 1.58 and BH-FDR <= 0.05
T1 sequence: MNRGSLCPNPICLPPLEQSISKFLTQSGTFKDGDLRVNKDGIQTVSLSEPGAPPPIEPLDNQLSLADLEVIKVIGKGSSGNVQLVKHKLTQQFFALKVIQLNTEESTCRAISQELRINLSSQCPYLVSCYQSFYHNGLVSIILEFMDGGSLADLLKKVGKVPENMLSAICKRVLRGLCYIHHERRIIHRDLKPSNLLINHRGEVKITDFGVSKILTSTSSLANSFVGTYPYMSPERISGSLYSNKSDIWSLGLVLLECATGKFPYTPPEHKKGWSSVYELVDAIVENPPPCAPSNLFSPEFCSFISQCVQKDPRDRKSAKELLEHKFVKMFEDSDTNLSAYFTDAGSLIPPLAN

[2] = target: T2, MKK2-TurboID-Hisx8 fusion protein (mitogen-activated protein kinase kinase 2 fused to TurboID) (Arabidopsis thaliana) (UniProt Q9S7U9); experiment: as above
T2 sequence: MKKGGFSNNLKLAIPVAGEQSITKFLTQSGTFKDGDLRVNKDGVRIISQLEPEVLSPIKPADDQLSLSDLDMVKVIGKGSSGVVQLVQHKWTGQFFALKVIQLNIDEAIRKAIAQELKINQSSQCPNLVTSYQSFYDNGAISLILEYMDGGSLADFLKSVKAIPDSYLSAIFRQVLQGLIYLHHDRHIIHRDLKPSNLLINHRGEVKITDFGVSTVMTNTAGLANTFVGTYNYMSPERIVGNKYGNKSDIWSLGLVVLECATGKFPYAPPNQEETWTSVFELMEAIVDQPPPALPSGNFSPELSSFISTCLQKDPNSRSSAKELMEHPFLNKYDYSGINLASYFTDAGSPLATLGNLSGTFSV

B2: Alfin-like 2 (AL2) (protein, UniProt Q9SRM4 1-246)
chain: MAAAAVSSNPRTVEEIFKDYSARRAALLRALTKDVDDFYSQCDPEKENLCLYGHPNESWEVNLPAEEVPPELPEPALGINFARDGMQRKDWLSLVAVHSDCWLLSVSFYFGARLNRNERKRLFSLINDLPTLFDVVTGRKAMKDNKPSSDSGSKSRNGTKRSIDGQTKSSTPKLMEESYEEEEEEDEHGDTLCGSCGGHYTNEEFWICCDVCERWYHGKCVKITPAKAESIKQYKCPPCCAKKGRQ
binding [2]: binds

B3: D111/G-patch domain-containing protein (DRT111) (protein, UniProt P42698 1-387)
chain: MLGGLYGDLPPPTDDEKPSGNSSSVWSSSTKMAPPTLRKPPAFAPPQTILRPLNKPKPIVSAPYKPPPPSNSSQSVLIPANESAPSHQPALVGVTSSVIEEYDPARPNDYEEYKREKKRKATEAEMKREMDKRRQEDEERDKREREEREKERERDNSDPSRLNISGEEAWKRRAAMSGGGSGGKGRSSSPPGNVDGFSIGKSETSGLGVGAGGQMTAAQRMMAKMGWKQGQGLGKSEQGITTPLMAKKTDRRAGVIVNASENKSSSAEKKVVKSVNINGEPTRVLLLRNMVGPGQVDDELEDEVGGECGKYGTVTRVLIFEITEPNFPVHEAVRIFVQFSRPEETTKALVDLDGRYFGGRTVRATFYDEEKFSKNELAPVPGEIPGY
binding [2]: binds

B4: GRAM domain family protein (GEM) (protein, UniProt Q8S8F8 1-299)
chain: MEPPKGDTVVKTEVPVKDPSLSVVDSKTKGVEDANTEIALSDEVEIETKGSDSTPVKAPSRTSSGSKKSVHWSPELVSGSQEPDQKAASSSSAGSNPYIARSPAETSDASLKDTMETVKGVLGRWGKRVAEAAKKTESLAGNTWQHLRTAPSFADAAMGRIAQSTKVFAEGGYEKIFRQTFETDPEEQLLNSFACYLSTSAGPVMGVLYISSAKLAYCSDNPLSYKNGDQTEWSYYKVVIPLHQLKAVNPSASIVNPAEKYIQVISVDNHEFWFMGFLNYDGAVTSLQDSLQAGALRSV
binding [2]: binds

B7: D-lactate dehydrogenase (DUF668) (PSI3) (protein, UniProt P0DO24 1-649)
chain: MGSFCSKSLGINFGSEYSGSSVADDGREPDFGHSQPNGQTSLIVPGMRQLMVKDVKEQNQLKDVFSFREREAEDNFYDGIPTYTMAPSQKIRSAKSTQTAVSKVTEASKLLGKAGLGRAKDVLDTLGSSMTDLSSGGFTSGVATKGNELGILAFEVANTIVKSSNLIESLSKRNIEHLKGTILYSEGVQNLVSNDFDELLRLVAADKRQELQVFSGEVVRFGNRSKDFQWHNLQRYFDRISKELTPQRQLKEDAVLVVDQLMVLVQYTAELYQELQVLYRLEKDYEQKRREEENSANSSKGDGLAILKTELKAQRKVVKSLKKKSLWSRGFEEVMEKLVDIVHFLLLEIHNIFGGADDQPSKKGAAEYDKRLGPAGLALHYANIIVQIDTLVARASSITSNARDSLYQSLPPGIKLALRSKIKSFNVDKELSVTQIKDEMERTLHWLVPVAGNTTKAHHGFGWVGEWANTGTDFTSKPSGGDILRIETLYHASKEKTEIYILGQIIWLQHLVTKAKSDARGGPRLSSIKSPLDTTNQQLISEPLSVPIVTDEEQKMLQEASKRKRTPCVSKSQDFDSEYSRARKCDPLSKSSEYFRGVRRSKSAAVKRYSSGFPLLDFAIDKEKVLDVIDRVDVPRDYKALLKEGSLSF
binding [2]: binds

B8: A member of the Arabidopsis LIM proteins (WLIM1) (protein, UniProt Q94JX5 1-190)
chain: MAFAGTTQKCMACDKTVYLVDKLTADNRVYHKACFRCHHCKGTLKLSNYNSFEGVLYCRPHFDQNFKRTGSLEKSFEGTPKIGKPDRPLEGERPAGTKVSNMFGGTREKCVGCDKTVYPIEKVSVNGTLYHKSCFKCTHGGCTISPSNYIAHEGKLYCKHHHIQLIKEKGNLSQLEGGGENAAKDKVVAA
binding [2]: binds

The next lines start with the values.

binding [1]: binds
Molecule: e1a2 subunit of branched chain ketoacid dehydrogenase (BCKDH) complex (E1A2)

binding [2]: binds
B1: RNA helicase 40 (RH40) (protein, UniProt Q9SQV1 1-1088)
chain: MATTEDTPASAGPRYAPEDPTLPQPWKGLIDGSTGILYYWNPETNVTQYERPSAPPPHSATTPKLAQIPVPSSGQGHQAQHEQAKPVGHVSQQHGFQQQPQQFPSQHVRPQMMQQHPAQQMPQQSGQQFPQQQSQSMVPHPHGHPSVQTYQPTTQQQQQGMQNQHSQMPQQLSHQYAHSQQHYMGFRPHMQTQGLQNSHQTPQGGPHGQQFPSQQEYNSLAPKREGDEFHGGKKTGFSQPHLPNSERSPSQNTHFEANAASQKTNANLAMAQKCNGPQANAAVTQFQQPGANLIHQQLGPRAPNQMDQTMLHQKSHVSPFQSNNTYENNLQSRPGNDSYVNMRMEVPVRGAQPLHPAAMPKDIRISGGPPTNADPAMGQTGHGTYGHAGPAFPNKSLVRPHFVTSPDVPHLSPVEIYRKQHEVTTTGENIPAPYITFESSGLPPEILRELLSAGFPSPTPIQAQTWPIALQSRDIVAIAKTGSGKTLGYLIPAFILLRHCRNDSRNGPTVLILAPTRELATQIQDEALRFGRSSRISCTCLYGGAPKGPQLKELERGADIVVATPGRLNDILEMKMIDFQQVSLLVLDEADRMLDMGFEPQIRKIVNEIPPRRQTLMYTATWPKEVRKIASDLLVNPVQVNIGRVDELAANKAITQYVEVVPQMEKERRLEQILRSQERGSKVIIFCSTKRLCDHLARSVGRHFGAVVIHGDKTQGERDWVLNQFRSGKSCVLIATDVAARGLDIKDIRVVINYDFPTGVEDYVHRIGRTGRAGATGVAFTFFTEQDWKYAPDLIKVLEGANQQVPPQVRDIAMRGGGGGGPGYSQDRRGMVNRFDSGGGGTRWDSGGGFGGRGGGFSGREGGFGGREGGFGGREGGFGGRGGRFGMRDDSFGRGGNRGRGFTGPDAGHMNVGGRGGFGRFGNNNNMESRGFGRGSGRGFGRGVGRFDNRRGRSRSRSPDLVRPRRRSSSYSRSRSRSGSYSRSRSRSRSWSRSRSRSPRHSRDRGGHNRSRSYSRSPSPVYERRDRAPRVSGFDIKPPVESVVNLDMNAAAAIENVVPTSLSERQGNGVVESEVEAALVRPVVDEEP

binding [2]: binds
B5: Splicing factor, putative (protein, UniProt Q9FMF9 1-1269)
chain: MADLDPEIAKTQEERRKMEADLASLTSLTFDRDLYGGNDRASYSTSIAPNEEDDANLDTTGSLVAQRLASYTAPRSILNDVARPHNEDDDVGFKPRQSIAEREGEYRNRRLNRVLSPDRVDAFAMGDKTPDASVRTYTDHMRETALQREKEETMRLIAKKKKEEEEAAAKHQKDSAPPPPASSSSSSSKRRHRWDLPEEDGAAAKKAKAASSDWDLPDAAPGIGRWDAPTPGRVSDATPSAGRRNRWDETPTPGRVTDSDATPGGGVTPGATPSGVTWDGLATPTPKRQRSRWDETPATMGSATPMGGVTPGAAYTPGVTPIGGIDMATPTPGQLIFRGPMTPEQLNMQRWEKDIEERNRPLSDEELDAMFPKDGYKVLDPPATYVPIRTPARKLQQTPTPMATPGYVIPEENRGQQYDVPPEVPGGLPFMKPEDYQYFGSLLNEENEEELSPEEQKERKIMKLLLKVKNGTPPQRKTALRQLTDKARELGAGPLFNKILPLLMQPTLEDQERHLLVKVIDRILYKLDEMVRPYVHKILVVIEPLLIDEDYYARVEGREIISNLSKAAGLASMIAAMRPDIDNIDEYVRNTTARAFSVVASALGIPALLPFLKAVCQSKRSWQARHTGIKIVQQIAILIGCAVLPHLRSLVEIIEHGLSDENQKVRTITALSLAALAEAAAPYGIESFDSVLKPLWKGIRSHRGKVLAAFLKAIGFIIPLMDAIYASYYTKEVMVILIREFQSPDEEMKKIVLKVVKQCVSTEGVEPEYIRSDILPEFFRNFWTRKMALERRNYKQLVETTVEVANKVGVADIVGRVVEDLKDESEQYRRMVMETIDKVVTNLGASDIDARLEELLIDGILYAFQEQTSDDANVMLNGFGAVVNALGQRVKPYLPQICGTIKWRLNNKSAKVRQQAADLISRIAVVMKQCGEEQLMGHLGVVLYEYLGEEYPEVLGSILGALKAIVNVIGMTKMTPPIKDLLPRLTPILKNRHEKVQENCIDLVGRIADRGAEFVPAREWMRICFELLEMLKAHKKGIRRATVNTFGYIAKAIGPQDVLATLLNNLKVQERQNRVCTTVAIAIVAETCSPFTVLPALMNEYRVPELNVQNGVLKSLSFLFEYIGEMGKDYIYAVTPLLEDALMDRDLVHRQTAASAVKHMALGVAGLGCEDALVHLLNFIWPNIFETSPHVINAVMEAIEGMRVALGAAVILNYCLQGLFHPARKVREVYWKIYNSLYIGAQDTLVAAYPVLEDEQNNVYSRPELTMFV

binding [2]: binds
B6: Peroxin 22 (PEX22) (protein, UniProt Q9LSX7 1-283)
chain: MAESSSPSPTEEIVRLIKRLSAYVAFKMSSLFSTTSIRNLDSRSIGAIAGLAIAVIFTWRAIRTPGEQRQRRQPKRRIHNAETSSAAAAASQSNLASSVAPEVSSPREDNAVQDVVDQFFQPVKPTLGQIVRQKLSEGRKVTCRLLGVILEETSPEELQKQATVRSSVLEVLLEITKYSDLYLMERVLDDESEAKVLQALENAGVFTSGGLVKDKVLFCSTEIGRTSFVRQLEPDWHIDTNPEISTQLARFIKYQLHVATVKPERTAPNVFTSQSIEQFFGSV

These are yes or no findings as the source states them, for the method shown. Binding seen in cells or lysates may run through a third protein. A yes stands for co-enrichment or nearness to the bait. Other partners may have been found. Where a sequence is shown, tags or fusion partners need not be part of it. Each block holds one molecule with its values, some of them ahead of it.
